Laboratory results as given in PMC8512764 (Molecules, 2021).

Assay: general procedure: Fmoc solid-phase peptide synthesis; 2-chlorotrityl chloride resin preloaded with Asp(tBu), Glu(tBu) or Gly; HATU/HOAt/collidine
Conditions: late stage modification step, TFA salts

Row | Substance | step yield [%]
1 | c[(MPUPA)Amp-Arg-Gly-Asp] | 63
2 | c[(MPUPA)Amp-Leu-Asp-Val-Gly] | 51
3 | c[(MPUPA)Amp-Val-Glu-Leu] | 33
4 | c[(MPUPA)Amp-Leu-Glu-Val-Gly] | 28
5 | c[(MPUPA)Amp-Leu-Glu-Val] | 56
6 | c[(MPUPA)Amp-Leu-Asp-Val] | 60
7 | c[(MPUPA)Amp-Val-Asp-Leu] | 23

Assay: general procedure: Fmoc solid-phase peptide synthesis; H-Glu(tBu)-2-ClTrt resin; HATU/HOAt/collidine
Conditions: whole synthesis, scale 0.043 mmol, TFA salts

Row | Substance | crude mass [mg] | crude yield [%]
8 | H-Val-1-(MPUPA)Amp-Leu-Glu(tBu)-OH | 34.1 | 99
9 | H-Val-Gly-1-(MPUPA)Amp-Leu-Glu(tBu)-OH | 36.0 | 98
10 | H-Leu-1-(MPUPA)Amp-Val-Glu(tBu)-OH | 34.2 | 98

Assay: general procedure: Fmoc solid-phase peptide synthesis; H-Asp(tBu)-2-ClTrt resin; HATU/HOAt/collidine
Conditions: whole synthesis, scale 0.044 mmol, TFA salts

Row | Substance | crude mass [mg] | crude yield [%]
11 | H-Leu-1-(MPUPA)Amp-Val-Asp(tBu)-OH | 33.2 | 98
12 | H-Val-Gly-1-(MPUPA)Amp-Leu-Asp(tBu)-OH | 36.0 | 99
13 | H-Val-1-(MPUPA)Amp-Leu-Asp(tBu)-OH | 34.0 | 99

Assay: general procedure: Fmoc solid-phase peptide synthesis; H-Gly-2-ClTrt resin; HATU/HOAt/collidine
Conditions: whole synthesis, scale 0.044 mmol, TFA salts

Row | Substance | crude mass [mg] | crude yield [%]
14 | H-Asp(tBu)-1-(MPUPA)Amp-Arg(Pmc)-Gly-OH | 35 | 78
